Data reported in PMC6539346, “Molecular and Structural Basis of the Proteasome α Subunit Assembly Mechanism Mediated by the Proteasome-Assembling Chaperone PAC3-PAC4 Heterodimer” (International Journal of Molecular Sciences, 2019).
These are yes or no findings as the source states them, for the method shown. For part of these data: Sequences can lack the tags named with a protein. Blank lines part the entries; values can stand above or below the molecule they belong to.

Chains of the proteins cited; added tags and fusions are not shown.
UniProt P60900: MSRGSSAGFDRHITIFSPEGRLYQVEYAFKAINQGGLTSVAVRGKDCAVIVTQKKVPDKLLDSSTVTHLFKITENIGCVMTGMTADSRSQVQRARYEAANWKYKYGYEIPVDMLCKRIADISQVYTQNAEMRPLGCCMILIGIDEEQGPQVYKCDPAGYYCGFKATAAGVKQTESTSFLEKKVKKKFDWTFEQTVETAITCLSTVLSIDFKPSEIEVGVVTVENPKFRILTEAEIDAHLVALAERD
UniProt P25787: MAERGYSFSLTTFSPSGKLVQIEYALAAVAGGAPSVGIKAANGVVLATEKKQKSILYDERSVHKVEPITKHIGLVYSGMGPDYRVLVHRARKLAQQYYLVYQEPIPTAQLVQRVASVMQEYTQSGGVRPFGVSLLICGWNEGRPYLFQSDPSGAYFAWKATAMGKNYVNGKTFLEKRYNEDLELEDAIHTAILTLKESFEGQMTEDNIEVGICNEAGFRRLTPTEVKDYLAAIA

Key:
[1] = molecular target: GST-fused human proteasome α5 subunit (human) (UniProt P28066); assay: condition: 50 μg of α subunits on 20 μg of immobilised GST-α5; pull-down; GST-α5 (20 μg) on Glutathione Sepharose 4B, incubated with the other α subunits (50 μg) in the presence of 50 μg of scPAC3/4 (wild type or V77S/K80A mutant), with or without α7; 2 h, 4 °C, 20 mM Tris-HCl pH 8.0, 150 mM NaCl; SDS-PAGE, CBB staining; both purified
[2] = molecular target: GST-fused human proteasome α5 subunit (human) (UniProt P28066); assay: condition: 50 μg of α subunits on 20 μg of immobilised GST-α5; pull-down; GST-α5 (20 μg) on Glutathione Sepharose 4B, incubated with the other α subunits (50 μg) in the absence of scPAC3/4, with or without α7; 2 h, 4 °C, 20 mM Tris-HCl pH 8.0, 150 mM NaCl; SDS-PAGE, CBB staining; both purified
[3] = molecular target: T1, GST-fused human proteasome α5 subunit (human), P28066; assay: as above; details: remark: other sources report otherwise
T1 chain: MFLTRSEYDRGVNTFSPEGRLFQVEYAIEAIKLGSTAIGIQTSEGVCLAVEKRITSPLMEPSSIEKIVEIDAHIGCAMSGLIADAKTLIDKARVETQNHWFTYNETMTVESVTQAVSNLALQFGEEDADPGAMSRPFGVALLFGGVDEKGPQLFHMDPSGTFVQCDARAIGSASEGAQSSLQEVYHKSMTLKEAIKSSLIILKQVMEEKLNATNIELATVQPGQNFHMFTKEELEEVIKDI

[4] = molecular target: T1, GST-fused human proteasome α5 subunit …; assay: condition: 50 μg of α subunits on 20 μg of immobilised GST-α5; pull-down; GST-α5 (20 μg) on Glutathione Sepharose 4B, incubated with the other α subunits (50 μg) in the presence of 50 μg of scPAC3/4 (wild type or V77S/K80A mutant), with or without α7; 2 h, 4 °C, 20 mM Tris-HCl pH 8.0, 150 mM NaCl; SDS-PAGE, CBB staining; both purified; details: remark: other sources report otherwise

binding [1]: no binding
binding [2]: no binding
Molecule: human proteasome α1 subunit, non-tagged (from UniProt P60900 1-246)

binding [1]: no binding
binding [2]: no binding
Molecule: human proteasome α2 subunit (from UniProt P25787 1-234)

binding [3]: no binding
binding [4]: no binding
B1: human proteasome α7 subunit, P25788 1-255 (protein)
chain: MSSIGTGYDLSASTFSPDGRVFQVEYAMKAVENSSTAIGIRCKDGVVFGVEKLVLSKLYEEGSNKRLFNVDRHVGMAVAGLLADARSLADIAREEASNFRSNFGYNIPLKHLADRVAMYVHAYTLYSAVRPFGCSFMLGSYSVNDGAQLYMIDPSGVSYGYWGCAIGKARQAAKTEIEKLQMKEMTCRDIVKEVAKIIYIVHDEVKDKAFELELSWVGELTNGRHEIVPKDIREEAEKYAKESLKEEDESDDDNM
